# Reference: the supplement of paper PMC8728848
# The other results are listed elsewhere or left out.
# B1: SfaEH (Escherichia coli), Q1RDG5 (protein)
# chain: LLCRNNQTGQVFNSGDTSFRVNVSPVVQYDKSISVLDLSQLVSCQNEDSTGQNYDYLKILKGSGFSPALDTKTYGRLDFTSRPTGYARQLPLQFDLQVTEAFYQYGVWKPFPAKLYLYPAPGVFGKVINNGDLLATLYVNKFSTKGQEAGERNFTWRFYATNDVYIQTGTCRVSSNNVKVDLPSYPGGPVTVPLTVRCDQTQSVSYTLSGPVTGSGNTVFANTAASGSGGVGIQLSDNVGPVPAGQPRSLGQVGSSPVSLGLKASYALTGQASPTPGAVQSVINVTFSYN
# Key:
# Experiment in all cases: glycan array binding signal (z-score within array); higher = stronger binding
# Details in all cases: glycan notation: IUPAC condensed, linker removed
# Gal3S(b1-4)Glc = target: Gal3S(b1-4)Glc
# How it was run: (§1)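 The binding signal is a Z-score computed within each array. Data were drawn from 3228 arrays in the Consortium for Functional Glycomics database, restricted to those with a known protein sequence. Scores were averaged over arrays of the same protein sequence at different concentrations or buffers, and over linkers, and negative values can be taken as non-binding.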
# Gal3S(b1-4)Glc6S = target: Gal3S(b1-4)Glc6S
# How it was run: as §1
# Gal3S(b1-4)GlcNAc = target: Gal3S(b1-4)GlcNAc
# How it was run: as §1
# [1] = target: Gal3S(b1-4)[Fuc(a1-3)]Glc6S
# How it was run: as §1
# [2] = target: Gal3S(b1-4)[Fuc(a1-3)]GlcNAc
# How it was run: as §1
# [3] = target: Gal3S(b1-4)[Fuc(a1-3)]GlcNAc6S
# How it was run: as §1
# Gal3S4S(b1-4)GlcNAc = target: Gal3S4S(b1-4)GlcNAc
# How it was run: as §1
# Gal3S6S(b1-4)GlcNAc = target: Gal3S6S(b1-4)GlcNAc
# How it was run: as §1
# Gal3S6S(b1-4)GlcNAc6S = target: Gal3S6S(b1-4)GlcNAc6S
# How it was run: as §1
# Gal4S(b1-4)GlcNAc = target: Gal4S(b1-4)GlcNAc
# How it was run: as §1
# Gal4S6S(b1-4)GlcNAc = target: Gal4S6S(b1-4)GlcNAc
# How it was run: as §1
# Gal6P(b1-4)GlcNAc = target: Gal6P(b1-4)GlcNAc
# How it was run: as §1
# Gal6S(b1-3)GlcNAc = target: Gal6S(b1-3)GlcNAc
# How it was run: as §1
# Gal6S(b1-3)GlcNAc6S = target: Gal6S(b1-3)GlcNAc6S
# How it was run: as §1
# Gal6S(b1-4)Glc = target: Gal6S(b1-4)Glc
# How it was run: as §1
# Gal6S(b1-4)Glc6S = target: Gal6S(b1-4)Glc6S
# How it was run: as §1
# Gal6S(b1-4)GlcNAc = target: Gal6S(b1-4)GlcNAc
# How it was run: as §1
# Gal6S(b1-4)GlcNAc6S = target: Gal6S(b1-4)GlcNAc6S
# How it was run: as §1
# GalNAc(a1-3)Gal = target: GalNAc(a1-3)Gal
# How it was run: as §1
# GalNAc(a1-3)GalNAc = target: GalNAc(a1-3)GalNAc
# How it was run: as §1
# [4] = target: GalNAc(a1-3)GalNAc(a1-3)Gal(a1-4)Gal(b1-4)GlcNAc
# How it was run: as §1
# [5] = target: GalNAc(a1-3)GalNAc(b1-3)Gal(a1-4)Gal(b1-4)Glc
# How it was run: as §1
# GalNAc(b1-3)Gal = target: GalNAc(b1-3)Gal
# How it was run: as §1
# [6] = target: GalNAc(b1-3)Gal(a1-4)Gal(b1-4)GlcNAc
# How it was run: as §1
# [7] = target: GalNAc(b1-3)Gal(a1-4)Gal(b1-4)GlcNAc(b1-3)Gal(b1-4)Glc
# How it was run: as §1
# [8] = target: GalNAc(b1-3)Gal(a1-6)Gal(b1-4)Glc
# How it was run: as §1
# GalNAc(b1-3)GalNAc = target: GalNAc(b1-3)GalNAc
# How it was run: as §1
# GalNAc(b1-3)GlcNAc = target: GalNAc(b1-3)GlcNAc
# How it was run: as §1
# GalNAc(b1-4)Gal(b1-4)Glc = target: GalNAc(b1-4)Gal(b1-4)Glc
# How it was run: as §1
# GalNAc(b1-4)GlcNAc = target: GalNAc(b1-4)GlcNAc
# How it was run: as §1
# [9] = target: GalNAc(b1-4)GlcNAc(b1-2)Man
# How it was run: as §1
# [10] = target: GalNAc(b1-4)GlcNAc(b1-2)Man(a1-3)[GalNAc(b1-4)GlcNAc(b1-2)Man(a1-6)]Man(b1-4)GlcNAc(b1-4)GlcNAc
# How it was run: as §1
# [11] = target: GalNAc(b1-4)GlcNAc(b1-3)GalNAc(b1-4)GlcNAc
# How it was run: as §1
# GalNAc(b1-4)GlcNAc6S = target: GalNAc(b1-4)GlcNAc6S
# How it was run: as §1
# GalNAc(b1-6)GalNAc = target: GalNAc(b1-6)GalNAc
# How it was run: as §1
# GalNAc3S(b1-4)GlcNAc = target: GalNAc3S(b1-4)GlcNAc
# How it was run: as §1
# GalNAc3S(b1-4)GlcNAc3S = target: GalNAc3S(b1-4)GlcNAc3S
# How it was run: as §1
binder,measurement,setting,value
B1,glycan array binding signal (z-score),Gal3S(b1-4)Glc,-0.825
same,glycan array binding signal (z-score),Gal3S(b1-4)Glc6S,0.221
same,glycan array binding signal (z-score),Gal3S(b1-4)GlcNAc,-0.041
same,glycan array binding signal (z-score),[1],1.91
same,glycan array binding signal (z-score),[2],0.441
same,glycan array binding signal (z-score),[3],1.1
same,glycan array binding signal (z-score),Gal3S4S(b1-4)GlcNAc,0.087
same,glycan array binding signal (z-score),Gal3S6S(b1-4)GlcNAc,2.12
same,glycan array binding signal (z-score),Gal3S6S(b1-4)GlcNAc6S,1.59
same,glycan array binding signal (z-score),Gal4S(b1-4)GlcNAc,-0.285
same,glycan array binding signal (z-score),Gal4S6S(b1-4)GlcNAc,0.149
same,glycan array binding signal (z-score),Gal6P(b1-4)GlcNAc,-0.826
same,glycan array binding signal (z-score),Gal6S(b1-3)GlcNAc,1.39
same,glycan array binding signal (z-score),Gal6S(b1-3)GlcNAc6S,-0.513
same,glycan array binding signal (z-score),Gal6S(b1-4)Glc,-0.148
same,glycan array binding signal (z-score),Gal6S(b1-4)Glc6S,1.04
same,glycan array binding signal (z-score),Gal6S(b1-4)GlcNAc,-1.14
same,glycan array binding signal (z-score),Gal6S(b1-4)GlcNAc6S,0.134
same,glycan array binding signal (z-score),GalNAc(a1-3)Gal,0.611
same,glycan array binding signal (z-score),GalNAc(a1-3)GalNAc,0.831
same,glycan array binding signal (z-score),[4],0.006
same,glycan array binding signal (z-score),[5],-0.309
same,glycan array binding signal (z-score),GalNAc(b1-3)Gal,0.414
same,glycan array binding signal (z-score),[6],-0.067
same,glycan array binding signal (z-score),[7],0.127
same,glycan array binding signal (z-score),[8],-1.16
same,glycan array binding signal (z-score),GalNAc(b1-3)GalNAc,0.821
same,glycan array binding signal (z-score),GalNAc(b1-3)GlcNAc,0.005
same,glycan array binding signal (z-score),GalNAc(b1-4)Gal(b1-4)Glc,-0.244
same,glycan array binding signal (z-score),GalNAc(b1-4)GlcNAc,-0.125
same,glycan array binding signal (z-score),[9],-0.973
same,glycan array binding signal (z-score),[10],0.06
same,glycan array binding signal (z-score),[11],-0.039
same,glycan array binding signal (z-score),GalNAc(b1-4)GlcNAc6S,-0.303
same,glycan array binding signal (z-score),GalNAc(b1-6)GalNAc,-0.133
same,glycan array binding signal (z-score),GalNAc3S(b1-4)GlcNAc,-0.199
same,glycan array binding signal (z-score),GalNAc3S(b1-4)GlcNAc3S,0.153

# Reformatted: results already given.
binder | measurement | setting | value
B1 | glycan array binding signal (z-score) | Gal6S(b1-4)Glc6S | 1.04
same | glycan array binding signal (z-score) | Gal6S(b1-4)GlcNAc | -1.14
